Results taken from the supplement of paper PMC10849652.
The list shows a part of the results.

Amino acid sequences for entries named in this document (tags omitted). A change or cut given only in a name is not applied to a line headed by its entry.
UniProt P18085: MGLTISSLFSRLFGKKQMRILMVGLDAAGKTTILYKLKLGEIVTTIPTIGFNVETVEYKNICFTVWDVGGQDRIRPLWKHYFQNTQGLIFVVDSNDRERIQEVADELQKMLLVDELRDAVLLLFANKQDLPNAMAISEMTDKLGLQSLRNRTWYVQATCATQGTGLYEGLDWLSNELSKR
UniProt P78540: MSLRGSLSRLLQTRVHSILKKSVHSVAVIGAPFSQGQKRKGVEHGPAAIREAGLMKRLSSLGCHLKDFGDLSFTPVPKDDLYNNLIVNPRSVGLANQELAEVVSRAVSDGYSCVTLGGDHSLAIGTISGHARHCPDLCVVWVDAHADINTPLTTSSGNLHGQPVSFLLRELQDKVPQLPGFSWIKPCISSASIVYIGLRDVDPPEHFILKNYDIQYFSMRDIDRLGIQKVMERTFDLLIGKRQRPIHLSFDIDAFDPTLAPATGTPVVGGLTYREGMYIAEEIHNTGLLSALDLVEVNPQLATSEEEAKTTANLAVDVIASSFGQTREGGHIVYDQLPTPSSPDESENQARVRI
UniProt P42331: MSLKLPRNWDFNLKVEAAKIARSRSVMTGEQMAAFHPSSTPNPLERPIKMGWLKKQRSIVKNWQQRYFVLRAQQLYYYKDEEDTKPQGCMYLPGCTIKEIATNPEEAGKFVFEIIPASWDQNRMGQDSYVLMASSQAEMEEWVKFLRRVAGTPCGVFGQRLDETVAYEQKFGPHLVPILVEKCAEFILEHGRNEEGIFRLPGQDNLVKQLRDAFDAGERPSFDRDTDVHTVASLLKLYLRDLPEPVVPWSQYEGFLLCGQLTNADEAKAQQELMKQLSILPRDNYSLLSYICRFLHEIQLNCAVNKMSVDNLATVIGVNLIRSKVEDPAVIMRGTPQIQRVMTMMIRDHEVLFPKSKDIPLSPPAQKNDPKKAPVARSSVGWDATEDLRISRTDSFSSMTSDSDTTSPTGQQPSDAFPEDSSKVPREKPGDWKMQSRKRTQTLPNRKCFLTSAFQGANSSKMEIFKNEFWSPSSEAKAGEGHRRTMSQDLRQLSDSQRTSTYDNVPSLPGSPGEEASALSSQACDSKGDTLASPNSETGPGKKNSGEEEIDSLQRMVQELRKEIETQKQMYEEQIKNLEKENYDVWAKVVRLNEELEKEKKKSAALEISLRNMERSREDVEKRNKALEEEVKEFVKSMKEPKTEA
UniProt Q9NRY4: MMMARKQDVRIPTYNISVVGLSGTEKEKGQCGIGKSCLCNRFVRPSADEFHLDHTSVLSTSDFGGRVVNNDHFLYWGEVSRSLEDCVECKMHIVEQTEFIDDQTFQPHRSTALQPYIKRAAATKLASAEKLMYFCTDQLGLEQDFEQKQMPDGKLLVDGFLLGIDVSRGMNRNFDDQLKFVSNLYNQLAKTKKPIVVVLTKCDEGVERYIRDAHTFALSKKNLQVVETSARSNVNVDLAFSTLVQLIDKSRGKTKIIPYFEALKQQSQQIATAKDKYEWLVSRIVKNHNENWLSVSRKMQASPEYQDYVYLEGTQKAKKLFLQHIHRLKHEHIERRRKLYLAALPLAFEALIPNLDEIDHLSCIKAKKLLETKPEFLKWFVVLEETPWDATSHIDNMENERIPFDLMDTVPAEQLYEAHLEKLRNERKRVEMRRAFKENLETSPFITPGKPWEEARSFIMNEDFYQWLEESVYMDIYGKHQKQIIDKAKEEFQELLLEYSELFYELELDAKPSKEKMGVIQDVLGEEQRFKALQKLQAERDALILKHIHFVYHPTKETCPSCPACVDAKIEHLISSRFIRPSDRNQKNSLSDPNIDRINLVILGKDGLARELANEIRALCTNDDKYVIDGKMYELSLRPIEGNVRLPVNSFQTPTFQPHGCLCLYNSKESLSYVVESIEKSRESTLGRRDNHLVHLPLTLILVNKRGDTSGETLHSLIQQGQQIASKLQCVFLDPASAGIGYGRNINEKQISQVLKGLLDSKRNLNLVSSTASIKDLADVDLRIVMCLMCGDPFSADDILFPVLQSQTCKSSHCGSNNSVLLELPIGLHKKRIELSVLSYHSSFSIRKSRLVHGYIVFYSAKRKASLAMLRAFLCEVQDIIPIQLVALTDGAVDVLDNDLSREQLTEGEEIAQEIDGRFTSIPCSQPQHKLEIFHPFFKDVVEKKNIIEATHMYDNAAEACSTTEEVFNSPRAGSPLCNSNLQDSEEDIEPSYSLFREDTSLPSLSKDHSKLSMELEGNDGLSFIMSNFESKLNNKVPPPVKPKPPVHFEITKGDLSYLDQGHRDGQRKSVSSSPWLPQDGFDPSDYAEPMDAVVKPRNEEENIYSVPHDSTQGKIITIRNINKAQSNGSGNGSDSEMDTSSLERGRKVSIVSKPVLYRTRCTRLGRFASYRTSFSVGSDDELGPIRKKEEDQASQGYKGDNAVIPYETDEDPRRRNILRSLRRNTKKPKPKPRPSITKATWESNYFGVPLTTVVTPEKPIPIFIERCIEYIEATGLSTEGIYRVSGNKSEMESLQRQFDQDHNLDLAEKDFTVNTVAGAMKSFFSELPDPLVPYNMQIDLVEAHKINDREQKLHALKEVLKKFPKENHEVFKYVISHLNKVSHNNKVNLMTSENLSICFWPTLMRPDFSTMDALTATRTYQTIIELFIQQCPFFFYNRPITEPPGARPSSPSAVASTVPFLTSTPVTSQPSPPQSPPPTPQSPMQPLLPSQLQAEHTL
UniProt P10398: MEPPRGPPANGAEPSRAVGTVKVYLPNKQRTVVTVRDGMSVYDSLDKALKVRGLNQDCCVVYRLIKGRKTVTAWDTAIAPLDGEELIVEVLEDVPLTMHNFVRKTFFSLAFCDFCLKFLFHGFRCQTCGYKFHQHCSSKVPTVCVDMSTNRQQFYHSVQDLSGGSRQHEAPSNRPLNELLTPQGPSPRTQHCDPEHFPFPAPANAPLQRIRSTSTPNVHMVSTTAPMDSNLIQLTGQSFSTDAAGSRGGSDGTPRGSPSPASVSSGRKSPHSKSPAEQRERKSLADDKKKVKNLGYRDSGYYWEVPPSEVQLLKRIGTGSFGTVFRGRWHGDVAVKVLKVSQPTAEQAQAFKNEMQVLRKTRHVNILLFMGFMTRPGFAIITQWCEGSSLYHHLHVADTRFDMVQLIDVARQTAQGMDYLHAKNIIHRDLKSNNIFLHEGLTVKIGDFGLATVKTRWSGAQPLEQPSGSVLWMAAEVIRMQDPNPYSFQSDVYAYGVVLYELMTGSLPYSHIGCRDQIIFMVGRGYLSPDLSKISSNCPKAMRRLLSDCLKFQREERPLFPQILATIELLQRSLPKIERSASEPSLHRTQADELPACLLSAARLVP
UniProt Q6NXE6: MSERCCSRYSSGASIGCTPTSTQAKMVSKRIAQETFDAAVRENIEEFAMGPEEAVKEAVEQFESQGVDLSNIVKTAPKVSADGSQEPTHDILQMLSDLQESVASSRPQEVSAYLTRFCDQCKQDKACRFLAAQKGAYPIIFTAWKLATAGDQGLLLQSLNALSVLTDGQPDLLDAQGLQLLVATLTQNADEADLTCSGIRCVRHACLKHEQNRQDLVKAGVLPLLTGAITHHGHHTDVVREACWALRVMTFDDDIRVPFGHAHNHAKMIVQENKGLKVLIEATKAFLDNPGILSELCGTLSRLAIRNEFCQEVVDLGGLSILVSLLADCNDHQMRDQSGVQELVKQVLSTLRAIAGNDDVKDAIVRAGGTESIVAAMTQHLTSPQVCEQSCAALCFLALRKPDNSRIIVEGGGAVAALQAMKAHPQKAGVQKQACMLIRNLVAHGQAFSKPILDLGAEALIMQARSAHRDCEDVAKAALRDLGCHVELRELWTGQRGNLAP
UniProt Q92974: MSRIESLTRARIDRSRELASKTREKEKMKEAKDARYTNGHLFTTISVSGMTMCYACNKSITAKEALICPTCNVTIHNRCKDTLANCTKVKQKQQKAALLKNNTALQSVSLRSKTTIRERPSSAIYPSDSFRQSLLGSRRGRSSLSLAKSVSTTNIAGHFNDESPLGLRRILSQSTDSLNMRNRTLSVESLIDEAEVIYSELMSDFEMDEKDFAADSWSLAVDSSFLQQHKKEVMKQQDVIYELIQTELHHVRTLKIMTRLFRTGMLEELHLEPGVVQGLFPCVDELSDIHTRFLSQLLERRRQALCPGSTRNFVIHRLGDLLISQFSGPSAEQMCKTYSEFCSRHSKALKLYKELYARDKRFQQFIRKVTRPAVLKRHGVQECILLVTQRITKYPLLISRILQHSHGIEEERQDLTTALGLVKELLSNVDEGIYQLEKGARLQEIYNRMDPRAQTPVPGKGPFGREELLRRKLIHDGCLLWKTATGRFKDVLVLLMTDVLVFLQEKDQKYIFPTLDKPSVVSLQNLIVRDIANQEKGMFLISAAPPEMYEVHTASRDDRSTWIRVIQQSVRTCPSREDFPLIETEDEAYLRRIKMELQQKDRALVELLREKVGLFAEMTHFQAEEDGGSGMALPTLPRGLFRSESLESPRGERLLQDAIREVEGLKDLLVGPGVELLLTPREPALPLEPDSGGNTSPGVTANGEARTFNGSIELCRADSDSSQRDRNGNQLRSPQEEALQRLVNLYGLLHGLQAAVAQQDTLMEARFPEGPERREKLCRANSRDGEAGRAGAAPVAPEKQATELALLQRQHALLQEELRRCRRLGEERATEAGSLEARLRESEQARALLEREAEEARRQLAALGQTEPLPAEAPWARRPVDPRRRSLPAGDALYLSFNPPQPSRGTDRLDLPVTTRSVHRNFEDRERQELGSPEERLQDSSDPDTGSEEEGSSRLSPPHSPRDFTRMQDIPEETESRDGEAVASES
UniProt Q6UXV4: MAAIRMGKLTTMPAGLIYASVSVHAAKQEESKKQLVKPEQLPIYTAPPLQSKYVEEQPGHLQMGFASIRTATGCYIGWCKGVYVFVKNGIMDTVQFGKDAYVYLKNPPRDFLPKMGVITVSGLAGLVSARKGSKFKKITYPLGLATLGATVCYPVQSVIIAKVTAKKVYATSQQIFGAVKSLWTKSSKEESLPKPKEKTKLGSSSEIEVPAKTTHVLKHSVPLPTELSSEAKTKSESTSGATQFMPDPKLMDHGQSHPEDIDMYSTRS
UniProt P49407: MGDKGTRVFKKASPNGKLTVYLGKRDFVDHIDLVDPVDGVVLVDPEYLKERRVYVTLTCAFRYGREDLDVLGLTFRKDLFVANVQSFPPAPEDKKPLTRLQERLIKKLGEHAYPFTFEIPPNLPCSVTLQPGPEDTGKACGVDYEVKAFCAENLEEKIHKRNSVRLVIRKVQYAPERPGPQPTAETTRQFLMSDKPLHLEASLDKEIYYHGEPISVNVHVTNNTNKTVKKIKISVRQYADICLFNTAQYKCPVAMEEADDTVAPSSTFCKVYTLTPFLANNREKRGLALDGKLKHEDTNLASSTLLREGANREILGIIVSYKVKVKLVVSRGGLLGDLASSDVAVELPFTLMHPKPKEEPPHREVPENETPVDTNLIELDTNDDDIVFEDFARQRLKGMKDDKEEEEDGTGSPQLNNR
UniProt Q8N6H7: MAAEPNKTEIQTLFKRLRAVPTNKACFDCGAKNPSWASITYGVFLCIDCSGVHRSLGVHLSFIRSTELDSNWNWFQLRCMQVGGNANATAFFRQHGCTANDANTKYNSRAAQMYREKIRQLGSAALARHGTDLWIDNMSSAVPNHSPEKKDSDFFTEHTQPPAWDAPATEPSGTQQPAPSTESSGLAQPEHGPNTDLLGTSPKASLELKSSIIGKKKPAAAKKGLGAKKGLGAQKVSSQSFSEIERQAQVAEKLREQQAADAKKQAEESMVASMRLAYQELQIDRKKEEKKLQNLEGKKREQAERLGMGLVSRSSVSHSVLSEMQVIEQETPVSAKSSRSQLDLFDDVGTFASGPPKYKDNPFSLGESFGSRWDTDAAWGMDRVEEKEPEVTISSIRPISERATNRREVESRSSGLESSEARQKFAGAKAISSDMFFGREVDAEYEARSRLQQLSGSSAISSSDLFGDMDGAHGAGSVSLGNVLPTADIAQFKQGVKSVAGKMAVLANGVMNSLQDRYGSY
UniProt Q7Z2E3: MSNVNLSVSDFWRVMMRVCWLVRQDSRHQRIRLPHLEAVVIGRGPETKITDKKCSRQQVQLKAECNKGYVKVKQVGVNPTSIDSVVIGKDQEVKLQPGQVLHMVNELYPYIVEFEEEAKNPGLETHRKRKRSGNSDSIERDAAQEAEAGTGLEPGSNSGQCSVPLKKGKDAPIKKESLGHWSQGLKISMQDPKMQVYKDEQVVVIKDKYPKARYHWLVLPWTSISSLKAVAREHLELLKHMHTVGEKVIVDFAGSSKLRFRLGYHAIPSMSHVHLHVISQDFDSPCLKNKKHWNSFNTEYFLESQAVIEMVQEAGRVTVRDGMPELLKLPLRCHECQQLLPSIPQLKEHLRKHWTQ
UniProt Q9NVJ2: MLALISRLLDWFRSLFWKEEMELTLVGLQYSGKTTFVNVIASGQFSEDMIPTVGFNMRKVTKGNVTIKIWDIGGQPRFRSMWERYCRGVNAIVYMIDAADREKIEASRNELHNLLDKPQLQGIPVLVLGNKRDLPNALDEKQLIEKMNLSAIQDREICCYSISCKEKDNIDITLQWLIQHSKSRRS

Columns and labels:
Assay in all cases: log2 fold change, soluble protein after heating vs DMSO (PISA); higher = thermal stabilisation; K562 lysate, 10 uM; active = over 0.2 and 3.5 SD of the protein, either way, in both replicates (recomputed)
[1] = compound: C1=CC=C(C=C1)[C@H](COC2=CC3=C(C=C2)NC(=O)N3)NC(=O)C4=CC=CN(C4=O)CC5=CC(=C(C=C5)F)F
How it was run: (§1)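 The values are log-two fold changes in thermal stability compared with solvent controls and come from duplicates. They were obtained by TMTpro 16plex LC-MS/MS, with channel sums equalised, on the supernatant after 21,000xg for 90 min. That supernatant came from crude K562 extract at 1 mg/mL protein treated with 10 μM compound for 30 min, heated for 3 min across 48°C-58°C, pooled and brought to 0.5% NP-40 at 4°C.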

[2] = compound: CC1=C(SC2=C1C(=N[C@H](C3=NN=C(N32)C)CC(=O)N)C4=CC=C(C=C4)Cl)C
How it was run: as §1

[3] = compound: CC1=C2C(=CC=C1)N=C(N(C2=O)C3=CC=CC=C3C)CN4C=NC5=C(N=CN=C54)N
How it was run: as §1

[4] = compound: Cc1sc2c(c1C)C(c1ccc(Cl)cc1)=N[C@@H](CC(=O)OC(C)(C)C)c1nnc(C)n1-2
How it was run: as §1

[5] = compound: c1ccc([C@@H]2C[C@H]2NC2CCNCC2)cc1
How it was run: as §1

Measured: log2 fold change

ARF4 (UniProt P18085)
inactive: [1] 0.003 | [2] 0.045 | [3] 0.038 | [4] -0.002 | [5] 0.017

ARCN1 (UniProt P48444)
inactive: [1] -0.003 | [2] 0.018 | [3] 0.003 | [4] -0.011 | [5] -0.014

APOL2 (UniProt J3KQL8)
inactive: [1] -0.062 | [2] -0.021 | [3] 0.102 | [4] 0.038 | [5] 0.085

ARG2 (UniProt P78540)
inactive: [1] 0.042 | [2] 0.038 | [3] 0.012 | [4] -0.015 | [5] -0.009

ARHGAP25 isoform 4 (UniProt P42331)
inactive: [1] 0.013 | [2] 0.016 | [3] 0.012 | [4] -0.046 | [5] 0.035

ARHGAP35 (UniProt Q9NRY4)
inactive: [1] -0.028 | [2] 0.004 | [3] -0.015 | [4] -0.009 | [5] -0.01

ARHGEF12 (UniProt Q9NZN5)
inactive: [1] -0.03 | [2] 0.017 | [3] -0.001 | [4] -0.019 | [5] -0.076

ARMT1 (UniProt Q9H993)
inactive: [1] -0.042 | [2] 0.008 | [3] -0.01 | [4] -0.01 | [5] 0.073

ARAF (UniProt P10398)
inactive: [1] 0.012 | [2] -0.002 | [3] -0.078 | [4] 0 | [5] 0.002

ARHGAP45 isoform 2 (UniProt Q92619)
inactive: [1] -0.086 | [2] -0.042 | [3] -0.007 | [4] 0.017 | [5] 0.077

APOBEC3D (UniProt Q96AK3)
inactive: [1] 0.023 | [2] 0.066 | [3] 0.067 | [4] 0.056 | [5] 0.085

ARHGEF10 (UniProt O15013)
inactive: [1] 0.078 | [2] 0.05 | [3] 0.027 | [4] -0.133 | [5] -0.198

ARFIP1 isoform 2 (UniProt P53367)
inactive: [1] -0.028 | [2] -0.07 | [3] 0.043 | [4] -0.094 | [5] 0.073

ARFGEF2 (UniProt Q9Y6D5)
inactive: [1] -0.043 | [2] 0.048 | [3] 0.031 | [4] -0.028 | [5] 0.017

ARMC6 (UniProt Q6NXE6)
inactive: [1] -0.046 | [2] -0.012 | [3] -0.017 | [4] 0.003 | [5] 0.043

ARHGEF2 (UniProt Q92974)
inactive: [1] 0.023 | [2] -0.007 | [3] 0.034 | [4] 0.008 | [5] 0.05

APOOL (UniProt Q6UXV4)
inactive: [1] 0.024 | [2] 0.009 | [3] -0.005 | [4] 0.012 | [5] -0.044

ARRB1 (UniProt P49407)
inactive: [1] 0.039 | [2] 0.018 | [3] 0.018 | [4] 0.021 | [5] -0.026

ARFRP1 (UniProt Q13795)
inactive: [1] 0.017 | [2] -0.029 | [3] -0.005 | [4] 0.029 | [5] -0.041

ARFGAP2 (UniProt Q8N6H7)
inactive: [1] 0.065 | [2] -0.002 | [3] 0.023 | [4] 0.03 | [5] 0.005

ASAH1 isoform 2 (UniProt Q13510)
inactive: [1] 0.112 | [2] 0.016 | [3] -0.027 | [4] 0.005 | [5] -0.012

APTX (UniProt Q7Z2E3)
inactive: [1] 0.008 | [2] -0.008 | [3] -0.067 | [4] -0.054 | [5] 0.036

ARMCX5 (UniProt Q6P1M9)
inactive: [1] 0.021 | [2] -0.07 | [3] 0.057 | [4] 0.036 | [5] -0.03

ARL8B (UniProt Q9NVJ2)
inactive: [1] 0.018 | [2] -0.027 | [3] 0.017 | [4] -0.053 | [5] -0.092

2 neighbouring entries out of the list so far:
APTX (UniProt Q7Z2E3)
inactive: [1] 0.008 | [2] -0.008 | [3] -0.067 | [4] -0.054 | [5] 0.036

ARMCX5 (UniProt Q6P1M9)
inactive: [1] 0.021 | [2] -0.07 | [3] 0.057 | [4] 0.036 | [5] -0.03
